According to paper PMC7504051, “Ilimaquinone Induces the Apoptotic Cell Death of Cancer Cells by Reducing Pyruvate Dehydrogenase Kinase 1 Activity” (International Journal of Molecular Sciences, 2020):
No constants are given. Whether binding was seen depends on the method and setting. In cells and extracts the contact can be indirect. Some entries that bind do so weakly or less than the wild type.

Sequences of proteins named here, by UniProt entry; tags and fusion partners are left off. Residues count along the entry.
UniProt Q15118, residues 29-436: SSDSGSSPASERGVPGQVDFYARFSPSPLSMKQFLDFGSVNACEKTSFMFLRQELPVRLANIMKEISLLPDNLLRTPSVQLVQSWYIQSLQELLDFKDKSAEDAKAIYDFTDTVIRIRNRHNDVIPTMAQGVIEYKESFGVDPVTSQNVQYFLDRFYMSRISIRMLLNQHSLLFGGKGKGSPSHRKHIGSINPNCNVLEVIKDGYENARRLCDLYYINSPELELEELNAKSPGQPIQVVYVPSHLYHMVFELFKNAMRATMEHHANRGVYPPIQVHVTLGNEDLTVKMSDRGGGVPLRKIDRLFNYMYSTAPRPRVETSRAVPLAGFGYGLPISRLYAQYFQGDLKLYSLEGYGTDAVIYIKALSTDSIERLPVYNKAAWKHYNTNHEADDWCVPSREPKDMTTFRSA

Molecular target: GST-PDK1 (pyruvate dehydrogenase kinase 1) (UniProt Q15118)
Experiment: pull-down; GST-PDK1 from transfected HEK293T lysate held on Glutathione Sepharose 4B beads and washed; HEK293T whole-cell lysates containing the PDH complex added with or without 50 μM IQ; Western blotting; only the target purified

binding: binds
B1: PDH-E2 subunit (dihydrolipoamide acetyltransferase, the E2 subunit of the pyruvate dehydrogenase complex) (protein, UniProt P10515 87-647)
chain: SLPPHQKVPLPSLSPTMQAGTIARWEKKEGDKINEGDLIAEVETDKATVGFESLEECYMAKILVAEGTRDVPIGAIICITVGKPEDIEAFKNYTLDSSAAPTPQAAPAPTPAATASPPTPSAQAPGSSYPPHMQVLLPALSPTMTMGTVQRWEKKVGEKLSEGDLLAEIETDKATIGFEVQEEGYLAKILVPEGTRDVPLGTPLCIIVEKEADISAFADYRPTEVTDLKPQVPPPTPPPVAAVPPTPQPLAPTPSAPCPATPAGPKGRVFVSPLAKKLAVEKGIDLTQVKGTGPDGRITKKDIDSFVPSKVAPAPAAVVPPTGPGMAPVPTGVFTDIPISNIRRVIAQRLMQSKQTIPHYYLSIDVNMGEVLLVRKELNKILEGRSKISVNDFIIKASALACLKVPEANSSWMDTVIRQNHVVDVSVAVSTPAGLITPIVFNAHIKGVETIANDVVSLATKAREGKLQPHEFQGGTFTISNLGMFGIKNFSAIINPPQACILAIGASEDKLVPADNEKGFDVASMMSVTLSCDHRVVDGAVGAQWLAEFRKYLEKPITMLL
